Protein sequences, listed by entry. Tags and fused reporters are not part of them. Lines headed by an entry give the natural chain unless they say otherwise; changes in a name come on top.
UniProt P18334: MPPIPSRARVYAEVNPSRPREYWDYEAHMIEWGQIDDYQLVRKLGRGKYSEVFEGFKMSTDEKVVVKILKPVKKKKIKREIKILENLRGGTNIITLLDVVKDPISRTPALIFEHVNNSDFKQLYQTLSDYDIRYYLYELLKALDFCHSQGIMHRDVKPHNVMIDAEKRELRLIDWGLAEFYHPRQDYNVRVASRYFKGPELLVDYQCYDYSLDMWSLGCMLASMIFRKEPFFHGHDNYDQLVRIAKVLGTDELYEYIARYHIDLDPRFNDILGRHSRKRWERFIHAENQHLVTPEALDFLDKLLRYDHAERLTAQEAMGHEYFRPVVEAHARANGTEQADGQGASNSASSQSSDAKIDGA
UniProt O01819: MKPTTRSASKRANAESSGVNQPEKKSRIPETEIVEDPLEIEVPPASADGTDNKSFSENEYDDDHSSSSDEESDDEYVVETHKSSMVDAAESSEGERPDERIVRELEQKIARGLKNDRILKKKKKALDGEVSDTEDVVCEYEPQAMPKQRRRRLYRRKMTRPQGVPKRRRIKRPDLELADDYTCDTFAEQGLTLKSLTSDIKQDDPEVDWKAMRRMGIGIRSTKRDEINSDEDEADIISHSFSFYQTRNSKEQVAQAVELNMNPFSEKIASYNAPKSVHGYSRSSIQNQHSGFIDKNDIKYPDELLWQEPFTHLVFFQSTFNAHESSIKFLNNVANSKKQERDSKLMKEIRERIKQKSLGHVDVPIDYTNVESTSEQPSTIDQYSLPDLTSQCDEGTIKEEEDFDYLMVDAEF

In PMC10978872:

Assays:
[1] = target: T1, FLAG::PRDE-1 (C. elegans) (UniProt O17828); test: co-IP; extracts of synchronous adult worms incubated with anti-FLAG beads for 2 h at 4 °C; FLAG::PRDE-1 precipitated, GFP::TOFU-4 detected by western blot
T1 sequence: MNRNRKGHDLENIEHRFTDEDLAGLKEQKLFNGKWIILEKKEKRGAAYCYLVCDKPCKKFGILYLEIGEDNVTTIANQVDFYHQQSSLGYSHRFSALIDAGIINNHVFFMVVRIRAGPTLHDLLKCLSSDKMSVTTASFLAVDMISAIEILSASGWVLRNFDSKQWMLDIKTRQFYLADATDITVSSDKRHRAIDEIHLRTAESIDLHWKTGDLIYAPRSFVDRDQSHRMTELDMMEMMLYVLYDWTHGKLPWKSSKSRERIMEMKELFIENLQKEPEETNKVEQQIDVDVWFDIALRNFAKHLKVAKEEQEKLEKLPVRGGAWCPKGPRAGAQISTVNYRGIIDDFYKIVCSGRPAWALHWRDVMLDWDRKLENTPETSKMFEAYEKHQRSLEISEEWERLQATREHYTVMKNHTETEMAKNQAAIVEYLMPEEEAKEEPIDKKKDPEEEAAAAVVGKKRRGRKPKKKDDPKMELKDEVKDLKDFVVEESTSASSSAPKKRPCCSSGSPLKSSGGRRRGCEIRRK

GST-KIN-3 (C. elegans) = GST-KIN-3 (C. elegans) (UniProt P18334); test: pull-down; GST fusion proteins incubated with His-tagged proteins and glutathione beads; bound proteins detected by western blot with anti-His antibody; both purified

| binding [1] | binding (GST-KIN-3 (C. elegans)) | Substance |
| --- | --- | --- |
| binds | – | GFP::TOFU-4 (wild type) (from UniProt O01819) |
| no binding | – | GFP::TOFU-4(S131A S229A) (C. elegans) |
| binds | – | GFP::TOFU-4(S131D S229D) (C. elegans) |
| – | binds | His-TOFU-4 (from UniProt O01819) |

No constants are given. Whether binding was seen depends on the method and setting. Binding calls can cover weak binding; strength is not graded here. For some of these results: In cells and extracts the contact can be indirect. For some of these results: Sequences can lack the tags named with a protein.
